Experimental data: patent publication US11130793B2 (Zealand Pharma A/S, priority 2016, dated 2021)
Square brackets hold non-standard residues; d marks the D form. Aib = CC(C)(N)C(=O)O

How the values were obtained:
[1] = general procedure: Fmoc solid-phase peptide synthesis; TentaGel S PHB Asp(tBu)Fmoc; conditions: whole synthesis, scale 1.19 g; 0.23 mmol/g
[2] = general procedure: Fmoc solid-phase peptide synthesis; TentaGel (TentaGel S PHB Asp(tBu)Fmoc, 0.23 mmol/g); conditions: whole synthesis, analytical HPLC and MS

H-H[Aib]EGSFTSELATILDEQAARDFIAWLIYHKITD-OH
crude mass [1]: 750 mg
crude purity (method not given) [2]: ˜30%
final HPLC purity [2]: 84%
